Reference: paper doi:10.1101/090100

Amino acid sequences for entries named in this document (tags omitted). A change or cut given only in a name is not applied to a line headed by its entry.
UniProt O95071: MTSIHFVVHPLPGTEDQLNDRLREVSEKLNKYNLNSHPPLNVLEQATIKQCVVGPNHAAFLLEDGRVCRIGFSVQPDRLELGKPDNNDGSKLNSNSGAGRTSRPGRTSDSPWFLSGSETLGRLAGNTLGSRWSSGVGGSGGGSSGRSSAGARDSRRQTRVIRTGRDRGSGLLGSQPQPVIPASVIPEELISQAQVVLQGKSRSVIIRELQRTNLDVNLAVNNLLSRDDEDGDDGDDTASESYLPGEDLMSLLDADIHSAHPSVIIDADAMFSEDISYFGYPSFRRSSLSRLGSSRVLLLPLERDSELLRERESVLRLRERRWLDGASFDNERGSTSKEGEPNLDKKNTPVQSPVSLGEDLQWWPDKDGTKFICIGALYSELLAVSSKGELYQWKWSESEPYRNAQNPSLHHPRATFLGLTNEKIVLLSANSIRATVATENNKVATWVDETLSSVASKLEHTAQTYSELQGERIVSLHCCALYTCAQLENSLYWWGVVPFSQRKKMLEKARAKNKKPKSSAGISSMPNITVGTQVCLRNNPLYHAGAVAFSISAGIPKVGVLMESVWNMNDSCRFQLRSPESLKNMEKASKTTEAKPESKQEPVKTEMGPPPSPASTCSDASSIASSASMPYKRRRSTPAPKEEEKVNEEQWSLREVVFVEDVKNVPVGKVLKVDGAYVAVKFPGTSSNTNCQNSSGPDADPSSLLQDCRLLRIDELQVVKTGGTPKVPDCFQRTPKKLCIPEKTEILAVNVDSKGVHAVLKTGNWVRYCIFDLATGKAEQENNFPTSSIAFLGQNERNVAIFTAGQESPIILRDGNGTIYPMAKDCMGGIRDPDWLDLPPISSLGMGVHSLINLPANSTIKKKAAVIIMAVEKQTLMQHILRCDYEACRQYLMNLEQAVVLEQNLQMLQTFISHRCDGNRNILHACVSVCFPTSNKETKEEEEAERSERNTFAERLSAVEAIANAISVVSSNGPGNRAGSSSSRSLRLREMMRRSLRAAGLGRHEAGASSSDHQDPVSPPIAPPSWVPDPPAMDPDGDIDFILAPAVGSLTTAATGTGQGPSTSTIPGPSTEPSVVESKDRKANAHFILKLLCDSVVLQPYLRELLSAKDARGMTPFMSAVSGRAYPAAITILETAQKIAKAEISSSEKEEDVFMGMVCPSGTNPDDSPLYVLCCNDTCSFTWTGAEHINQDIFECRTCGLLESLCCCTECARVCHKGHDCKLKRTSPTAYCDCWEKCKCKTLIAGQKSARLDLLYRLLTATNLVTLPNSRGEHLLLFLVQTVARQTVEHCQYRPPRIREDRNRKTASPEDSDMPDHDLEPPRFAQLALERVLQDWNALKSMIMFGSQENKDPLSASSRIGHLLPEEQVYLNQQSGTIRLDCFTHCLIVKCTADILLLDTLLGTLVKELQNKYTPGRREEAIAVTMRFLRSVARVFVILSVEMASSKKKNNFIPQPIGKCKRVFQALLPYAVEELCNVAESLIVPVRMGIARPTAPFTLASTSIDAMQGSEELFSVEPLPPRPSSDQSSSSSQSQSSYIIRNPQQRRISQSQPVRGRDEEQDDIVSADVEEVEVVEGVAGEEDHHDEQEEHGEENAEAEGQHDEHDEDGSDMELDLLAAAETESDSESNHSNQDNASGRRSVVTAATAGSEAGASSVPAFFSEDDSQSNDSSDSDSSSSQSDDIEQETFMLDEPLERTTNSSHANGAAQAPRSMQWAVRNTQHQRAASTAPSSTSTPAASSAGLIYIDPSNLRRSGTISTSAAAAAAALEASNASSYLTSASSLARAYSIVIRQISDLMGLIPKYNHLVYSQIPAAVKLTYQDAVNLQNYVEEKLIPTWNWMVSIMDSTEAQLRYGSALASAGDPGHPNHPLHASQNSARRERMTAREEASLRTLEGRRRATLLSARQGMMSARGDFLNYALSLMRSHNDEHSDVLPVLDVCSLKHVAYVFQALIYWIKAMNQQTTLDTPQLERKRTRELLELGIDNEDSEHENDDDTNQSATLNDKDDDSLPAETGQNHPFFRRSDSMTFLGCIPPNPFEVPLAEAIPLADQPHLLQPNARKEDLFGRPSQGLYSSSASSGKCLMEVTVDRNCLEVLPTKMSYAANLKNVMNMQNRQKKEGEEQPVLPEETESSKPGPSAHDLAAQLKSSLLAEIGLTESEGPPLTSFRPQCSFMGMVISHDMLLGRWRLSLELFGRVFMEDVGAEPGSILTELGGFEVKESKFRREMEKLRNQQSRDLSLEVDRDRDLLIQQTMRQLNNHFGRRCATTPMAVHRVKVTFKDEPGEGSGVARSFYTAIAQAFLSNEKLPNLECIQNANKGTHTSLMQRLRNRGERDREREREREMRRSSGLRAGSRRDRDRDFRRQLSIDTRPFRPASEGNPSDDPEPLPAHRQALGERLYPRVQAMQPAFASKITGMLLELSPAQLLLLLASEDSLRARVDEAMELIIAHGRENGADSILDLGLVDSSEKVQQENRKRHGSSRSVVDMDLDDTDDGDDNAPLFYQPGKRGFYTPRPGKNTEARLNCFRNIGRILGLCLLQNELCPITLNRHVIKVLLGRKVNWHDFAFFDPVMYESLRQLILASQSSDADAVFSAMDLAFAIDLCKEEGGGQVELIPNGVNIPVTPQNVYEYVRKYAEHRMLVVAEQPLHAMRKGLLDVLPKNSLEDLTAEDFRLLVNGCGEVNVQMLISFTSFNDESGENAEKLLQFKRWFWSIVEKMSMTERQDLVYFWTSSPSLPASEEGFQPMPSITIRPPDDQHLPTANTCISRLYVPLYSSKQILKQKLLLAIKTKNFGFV
UniProt P23258: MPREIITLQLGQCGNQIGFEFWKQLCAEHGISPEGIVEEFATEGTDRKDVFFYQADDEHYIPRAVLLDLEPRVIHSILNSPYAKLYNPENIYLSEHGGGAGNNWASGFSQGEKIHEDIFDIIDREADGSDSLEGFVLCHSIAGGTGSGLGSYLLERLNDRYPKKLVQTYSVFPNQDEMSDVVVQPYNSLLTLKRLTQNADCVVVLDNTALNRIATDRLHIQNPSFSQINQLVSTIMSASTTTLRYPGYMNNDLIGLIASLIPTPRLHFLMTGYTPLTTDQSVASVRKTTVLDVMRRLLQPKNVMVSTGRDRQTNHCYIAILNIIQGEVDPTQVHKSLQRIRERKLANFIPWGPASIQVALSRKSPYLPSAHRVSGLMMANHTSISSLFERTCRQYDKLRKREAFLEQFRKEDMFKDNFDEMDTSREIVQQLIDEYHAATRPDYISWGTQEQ

Molecular target: GFP-UBR5 (wild-type) (UniProt O95071)
Assay: co-IP

- binding: binds
Substance: γ-tubulin (from UniProt P23258)

These are yes or no findings as the source states them, for the method shown. In cells and extracts the contact can be indirect. Binding can be weak; no strength is given.
